{"source": "PubChem BioAssay AID1259308 | NCATS | 2017", "screen": "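Candidate targets for better recombinant protein yield in mammalian cells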 (primary screen)", "system": "human HEK293 embryonic kidney cells stably expressing firefly luciferase (HEK-CMV-Luc2-Hygro)", "knock-down reagent": "single siRNA against human genes, 0.8 pmol siRNA per well", "timing": "72 h", "detection": "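Luciferase light (ONE-Glo) measured on one replicate plate set and viability (CellTiter-Glo) on the other, scaled to a negative control siRNA, with robust z-scores and luciferase per cell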", "direction": "total luciferase, z-score and total luciferase, % of control: higher = more reporter protein produced", "call rule": "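An siRNA counts as active if its total luciferase robust z-score exceeds 3; genes with two or more such siRNAs out of three were retested with fresh siRNAs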", "meaning of the calls": "active = raised luciferase; inactive = no rise", "note": "The deposit covers about 59,000 reagents; shown is an unselected part. Over the whole deposit, about 1,510 (2.6%) were called active. 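Calls use total luciferase alone and ignore viability, so some active siRNAs may act by altering cell number.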 Reagents against one gene are numbered here. Not all columns of the deposit are shown."}
{"target gene": "C9orf152", "reagent no.": 1, "total luciferase, z-score": 0.613, "total luciferase, % of control": 94.1, "call": "inactive"}
{"target gene": "C9orf152", "reagent no.": 2, "total luciferase, z-score": -1.9, "total luciferase, % of control": 44, "call": "inactive"}
{"target gene": "C9orf152", "reagent no.": 3, "total luciferase, z-score": 1.93, "total luciferase, % of control": 120, "call": "inactive"}
{"target gene": "AKR1C2", "reagent no.": 1, "total luciferase, z-score": 0.382, "total luciferase, % of control": 89.5, "call": "inactive"}
{"target gene": "AKR1C2", "reagent no.": 2, "total luciferase, z-score": -0.0765, "total luciferase, % of control": 80.4, "call": "inactive"}
{"target gene": "AKR1C2", "reagent no.": 3, "total luciferase, z-score": -0.144, "total luciferase, % of control": 79, "call": "inactive"}
{"target gene": "CCDC112", "reagent no.": 1, "total luciferase, z-score": 0.203, "total luciferase, % of control": 85.9, "call": "inactive"}
{"target gene": "CCDC112", "reagent no.": 2, "total luciferase, z-score": -1.94, "total luciferase, % of control": 43.3, "call": "inactive"}
{"target gene": "CCDC112", "reagent no.": 3, "total luciferase, z-score": 0.138, "total luciferase, % of control": 84.6, "call": "inactive"}
{"target gene": "C1orf94", "reagent no.": 1, "total luciferase, z-score": -0.141, "total luciferase, % of control": 79.1, "call": "inactive"}
{"target gene": "C1orf94", "reagent no.": 2, "total luciferase, z-score": 0.132, "total luciferase, % of control": 84.5, "call": "inactive"}
{"target gene": "C1orf94", "reagent no.": 3, "total luciferase, z-score": 0.76, "total luciferase, % of control": 97, "call": "inactive"}

Next part (3 carried over from the part before).
{"target gene": "C1orf94", "reagent no.": 1, "total luciferase, z-score": -0.141, "total luciferase, % of control": 79.1, "call": "inactive"}
{"target gene": "C1orf94", "reagent no.": 2, "total luciferase, z-score": 0.132, "total luciferase, % of control": 84.5, "call": "inactive"}
{"target gene": "C1orf94", "reagent no.": 3, "total luciferase, z-score": 0.76, "total luciferase, % of control": 97, "call": "inactive"}
{"target gene": "PEX1", "reagent no.": 1, "total luciferase, z-score": 0.122, "total luciferase, % of control": 84.3, "call": "inactive"}
{"target gene": "PEX1", "reagent no.": 2, "total luciferase, z-score": 1.25, "total luciferase, % of control": 107, "call": "inactive"}
{"target gene": "PEX1", "reagent no.": 3, "total luciferase, z-score": -0.419, "total luciferase, % of control": 73.6, "call": "inactive"}
{"target gene": "SUGP2", "reagent no.": 1, "total luciferase, z-score": -0.793, "total luciferase, % of control": 66.1, "call": "inactive"}
{"target gene": "SUGP2", "reagent no.": 2, "total luciferase, z-score": -0.816, "total luciferase, % of control": 65.7, "call": "inactive"}
{"target gene": "SUGP2", "reagent no.": 3, "total luciferase, z-score": -0.407, "total luciferase, % of control": 73.8, "call": "inactive"}
{"target gene": "HOXC8", "reagent no.": 1, "total luciferase, z-score": -1.34, "total luciferase, % of control": 55.2, "call": "inactive"}
{"target gene": "HOXC8", "reagent no.": 2, "total luciferase, z-score": -0.81, "total luciferase, % of control": 65.8, "call": "inactive"}
{"target gene": "HOXC8", "reagent no.": 3, "total luciferase, z-score": -1.53, "total luciferase, % of control": 51.5, "call": "inactive"}
{"target gene": "PRSS16", "reagent no.": 1, "total luciferase, z-score": -0.738, "total luciferase, % of control": 67.2, "call": "inactive"}
{"target gene": "PRSS16", "reagent no.": 2, "total luciferase, z-score": 1.05, "total luciferase, % of control": 103, "call": "inactive"}
{"target gene": "PRSS16", "reagent no.": 3, "total luciferase, z-score": -0.259, "total luciferase, % of control": 76.7, "call": "inactive"}
{"target gene": "TIMM44", "reagent no.": 1, "total luciferase, z-score": -0.909, "total luciferase, % of control": 63.8, "call": "inactive"}
{"target gene": "TIMM44", "reagent no.": 2, "total luciferase, z-score": -1.48, "total luciferase, % of control": 52.5, "call": "inactive"}
{"target gene": "TIMM44", "reagent no.": 3, "total luciferase, z-score": 0.49, "total luciferase, % of control": 91.6, "call": "inactive"}
{"target gene": "UBE2O", "reagent no.": 1, "total luciferase, z-score": 0.0793, "total luciferase, % of control": 83.5, "call": "inactive"}
{"target gene": "UBE2O", "reagent no.": 2, "total luciferase, z-score": 1.53, "total luciferase, % of control": 112, "call": "inactive"}
{"target gene": "UBE2O", "reagent no.": 3, "total luciferase, z-score": 1.27, "total luciferase, % of control": 107, "call": "inactive"}
{"target gene": "PDGFA", "reagent no.": 1, "total luciferase, z-score": 0.29, "total luciferase, % of control": 87.6, "call": "inactive"}
{"target gene": "PDGFA", "reagent no.": 2, "total luciferase, z-score": 1.07, "total luciferase, % of control": 103, "call": "inactive"}
{"target gene": "PDGFA", "reagent no.": 3, "total luciferase, z-score": 1.47, "total luciferase, % of control": 111, "call": "inactive"}
